According to PMC11091695:
Substitutions are numbered along the chain they refer to. Names may count otherwise. No constants are given. Whether binding was seen depends on the method and setting. Binding seen in cells or lysates may run through a third protein. Some results given as binding are weak or reduced against the parent protein; the word gives no strength. Where a sequence is shown, tags or fusion partners need not be part of it. Each block holds one binder with its values, some of them ahead of it.

Tests used:
[1] = target: T1, GFP−Vam7-Q284R (S. cerevisiae) (UniProt P32912); assay: co-IP; as a1, but WT cells overexpressing VAM3, VTI1 and 3FLAG−YKT6 or 3FLAG−ykt6-R165Q from a single multicopy (2 μm) plasmid; GFP-tagged Vam7 form immunoprecipitated
T1 sequence: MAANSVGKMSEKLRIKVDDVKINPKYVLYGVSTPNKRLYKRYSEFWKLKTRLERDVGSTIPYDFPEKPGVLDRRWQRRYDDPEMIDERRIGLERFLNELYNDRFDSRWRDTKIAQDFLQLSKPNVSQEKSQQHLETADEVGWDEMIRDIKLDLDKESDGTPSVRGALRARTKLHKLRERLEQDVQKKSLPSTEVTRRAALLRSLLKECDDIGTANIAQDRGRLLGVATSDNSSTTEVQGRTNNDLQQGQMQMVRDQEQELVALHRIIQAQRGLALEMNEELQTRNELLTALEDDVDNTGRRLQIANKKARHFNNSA

[2] = target: T2, GFP-tagged Vam7 (S. cerevisiae) (UniProt P32912); assay: co-IP; 3FLAG-tagged R-SNARE from a centromeric (low-copy) plasmid in WT yeast expressing the GFP-tagged Vam7 form; spheroplasts cross-linked with dithiobis(succinimidyl propionate), lysed in 20 mM Pipes-NaOH pH 6.8, 200 mM sorbitol, 150 mM NaCl, 5 mM MgCl2, 1% Triton X-100; GFP-Trap magnetic agarose beads, 2 h at 4 °C; blot with anti-FLAG
T2 sequence: T1 sequence with R284Q

[3] = target: T1, GFP−Vam7-Q284R (S. cerevisiae); assay: as above

binding [1]: binds
B1: 3FLAG−Ykt6-R165Q (protein, UniProt P36015 1-200)
chain: MRIYYIGVFRSGGEKALELSEVKDLSQFGFFERSSVGQFMTFFAETVASRTGAGQRQSIEEGNYIGHVYARSEGICGVLITDKEYPVRPAYTLLNKILDEYLVAHPKEEWADVTETNDALKMKQLDTYISKYQDPSQADAIMKVQQELDETKIVLHKTIENVLQQGEKLDNLVDKSESLTASSKMFYKQAKKSNSCCIIM

binding [2]: binds
B2: 3FLAG−Nyv1 (protein, UniProt Q12255 1-253)
chain: MKRFNVSYVEVIKNGETISSCFQPFQKNENYGTITSANEQITPVIFHNLIMDMVLPKVVPIKGNKVTKMSMNLIDGFDCFYSTDDHDPKTVYVCFTLVDMPKILPIRILSGLQEYESNATNELLSSHVGQILDSFHEELVEYRNQTLNSSGNGQSSNGNGQNTISDIGDATEDQIKDVIQIMNDNIDKFLERQERVSLLVDKTSQLNSSSNKFRRKAVNIKEIMWWQKVKNITLLTFTIILFVSAAFMFFYLW

binding [3]: binds
B3: 3FLAG−Nyv1-R192Q (protein, UniProt Q12255 1-253)
chain: B2 chain with R192Q
